Values quoted from earlier work in US7858329B2, “Antibody tools for the diagnostic use in the medical therapy with inhibitors of histone deacetylases” (TopoTarget Germany AG, priority 2002, dated 2010).
Where two headings read alike, the source gives them in different places. At least one structure is not confirmed: it was looked up by name or label, or the drawing left a doubt.

Test system: acute promyelocytic leukemia (APL)
Conditions: cited from earlier work

CC1=C(/C=C/C(C)=C/C=C/C(C)=C/C(=O)O)C(C)(C)CCC1 [retinoic acid]
clinical response (PLZF-RAR APL patients): respond very poorly | clinical response (PML-RAR APL patients): complete remission
